Results are given in words; binding and its absence hold for the method and conditions named. Binding seen in cells or lysates may run through a third protein. A yes stands for co-enrichment or nearness to the bait. Other partners may have been found.
Biological target: Flag-tagx3-HA-tagx3 (F3H3)-K-Rta, KSHV replication and transactivation protein (Kaposi's sarcoma-associated herpesvirus (human herpesvirus 8)) (UniProt F5HCV3)
Assay: affinity purification with mass spectrometry

Chains of the proteins cited; added tags and fusions are not shown.
UniProt F5HCV3: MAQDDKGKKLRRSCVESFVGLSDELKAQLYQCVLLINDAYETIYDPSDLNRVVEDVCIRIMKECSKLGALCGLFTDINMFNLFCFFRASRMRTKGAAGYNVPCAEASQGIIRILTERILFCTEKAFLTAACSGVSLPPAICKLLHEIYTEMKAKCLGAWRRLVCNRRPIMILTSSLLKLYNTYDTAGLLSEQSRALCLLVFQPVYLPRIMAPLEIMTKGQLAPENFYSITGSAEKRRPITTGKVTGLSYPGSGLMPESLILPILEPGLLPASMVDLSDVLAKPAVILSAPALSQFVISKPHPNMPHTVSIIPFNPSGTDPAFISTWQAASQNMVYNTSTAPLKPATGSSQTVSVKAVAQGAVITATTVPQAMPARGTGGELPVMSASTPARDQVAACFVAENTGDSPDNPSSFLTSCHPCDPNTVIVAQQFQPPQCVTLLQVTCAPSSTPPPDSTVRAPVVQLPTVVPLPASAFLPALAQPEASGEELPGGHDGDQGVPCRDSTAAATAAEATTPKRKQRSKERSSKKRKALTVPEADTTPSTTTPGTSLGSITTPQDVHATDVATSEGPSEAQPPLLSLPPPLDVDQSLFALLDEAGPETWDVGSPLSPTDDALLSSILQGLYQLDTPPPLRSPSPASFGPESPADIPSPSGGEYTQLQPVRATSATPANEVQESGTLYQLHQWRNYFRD
UniProt Q09472: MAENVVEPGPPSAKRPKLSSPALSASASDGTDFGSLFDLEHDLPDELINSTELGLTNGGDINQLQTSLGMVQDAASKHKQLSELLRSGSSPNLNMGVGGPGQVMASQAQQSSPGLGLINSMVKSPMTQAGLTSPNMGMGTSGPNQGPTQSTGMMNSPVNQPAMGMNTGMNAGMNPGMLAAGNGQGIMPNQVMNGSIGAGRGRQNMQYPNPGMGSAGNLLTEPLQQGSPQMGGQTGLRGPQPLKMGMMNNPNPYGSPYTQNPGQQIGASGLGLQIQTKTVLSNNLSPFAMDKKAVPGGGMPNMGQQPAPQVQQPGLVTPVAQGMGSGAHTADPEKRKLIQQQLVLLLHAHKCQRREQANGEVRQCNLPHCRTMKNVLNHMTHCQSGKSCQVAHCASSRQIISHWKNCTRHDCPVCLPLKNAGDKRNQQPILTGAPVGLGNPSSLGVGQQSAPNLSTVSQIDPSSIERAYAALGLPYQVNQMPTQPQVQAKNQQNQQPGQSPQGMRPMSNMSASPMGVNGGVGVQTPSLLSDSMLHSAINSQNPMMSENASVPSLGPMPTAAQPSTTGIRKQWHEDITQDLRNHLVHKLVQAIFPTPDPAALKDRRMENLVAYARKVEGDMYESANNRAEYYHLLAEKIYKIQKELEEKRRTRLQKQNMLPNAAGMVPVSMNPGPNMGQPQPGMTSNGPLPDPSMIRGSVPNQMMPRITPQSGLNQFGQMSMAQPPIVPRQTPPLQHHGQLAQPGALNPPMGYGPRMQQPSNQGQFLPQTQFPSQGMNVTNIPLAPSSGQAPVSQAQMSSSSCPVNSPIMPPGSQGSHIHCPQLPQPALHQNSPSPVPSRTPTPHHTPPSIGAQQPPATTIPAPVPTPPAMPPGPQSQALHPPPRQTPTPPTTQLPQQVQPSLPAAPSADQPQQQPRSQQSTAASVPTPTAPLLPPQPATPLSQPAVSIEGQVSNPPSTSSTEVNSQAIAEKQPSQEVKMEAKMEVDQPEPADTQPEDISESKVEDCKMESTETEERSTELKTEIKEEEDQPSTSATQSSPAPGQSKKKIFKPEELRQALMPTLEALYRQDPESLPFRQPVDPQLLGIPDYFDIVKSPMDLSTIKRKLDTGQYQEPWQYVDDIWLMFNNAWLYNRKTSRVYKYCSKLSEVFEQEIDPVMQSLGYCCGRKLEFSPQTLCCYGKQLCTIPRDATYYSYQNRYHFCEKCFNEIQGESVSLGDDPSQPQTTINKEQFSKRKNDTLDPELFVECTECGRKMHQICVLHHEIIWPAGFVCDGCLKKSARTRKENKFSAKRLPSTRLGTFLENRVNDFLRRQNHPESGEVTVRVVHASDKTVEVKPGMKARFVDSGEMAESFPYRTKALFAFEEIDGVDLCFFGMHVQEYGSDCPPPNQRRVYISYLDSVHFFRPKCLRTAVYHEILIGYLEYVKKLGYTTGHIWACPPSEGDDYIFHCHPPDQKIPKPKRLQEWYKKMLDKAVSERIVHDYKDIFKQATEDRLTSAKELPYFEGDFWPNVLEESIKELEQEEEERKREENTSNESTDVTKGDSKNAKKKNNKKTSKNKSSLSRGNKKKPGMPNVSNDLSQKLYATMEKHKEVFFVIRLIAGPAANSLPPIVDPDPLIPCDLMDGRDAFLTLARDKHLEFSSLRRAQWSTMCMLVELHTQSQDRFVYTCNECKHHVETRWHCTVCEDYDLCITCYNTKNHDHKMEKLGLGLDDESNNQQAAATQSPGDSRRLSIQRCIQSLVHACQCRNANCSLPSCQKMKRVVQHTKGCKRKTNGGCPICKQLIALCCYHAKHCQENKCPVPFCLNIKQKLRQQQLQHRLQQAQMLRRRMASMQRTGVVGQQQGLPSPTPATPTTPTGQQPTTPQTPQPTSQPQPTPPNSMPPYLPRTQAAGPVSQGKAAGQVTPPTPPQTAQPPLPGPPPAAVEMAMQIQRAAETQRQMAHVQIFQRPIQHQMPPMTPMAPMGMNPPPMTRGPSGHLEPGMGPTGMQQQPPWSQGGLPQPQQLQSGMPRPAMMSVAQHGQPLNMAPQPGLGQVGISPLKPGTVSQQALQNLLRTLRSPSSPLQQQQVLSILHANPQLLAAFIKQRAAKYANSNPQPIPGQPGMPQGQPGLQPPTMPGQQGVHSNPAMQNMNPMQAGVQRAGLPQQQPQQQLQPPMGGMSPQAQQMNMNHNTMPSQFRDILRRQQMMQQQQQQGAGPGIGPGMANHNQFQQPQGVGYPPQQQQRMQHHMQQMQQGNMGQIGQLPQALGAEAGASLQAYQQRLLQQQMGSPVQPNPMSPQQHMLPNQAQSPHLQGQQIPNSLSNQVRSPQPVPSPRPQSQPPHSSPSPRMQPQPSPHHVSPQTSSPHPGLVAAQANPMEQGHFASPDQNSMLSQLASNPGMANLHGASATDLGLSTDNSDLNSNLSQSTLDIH
UniProt Q15596: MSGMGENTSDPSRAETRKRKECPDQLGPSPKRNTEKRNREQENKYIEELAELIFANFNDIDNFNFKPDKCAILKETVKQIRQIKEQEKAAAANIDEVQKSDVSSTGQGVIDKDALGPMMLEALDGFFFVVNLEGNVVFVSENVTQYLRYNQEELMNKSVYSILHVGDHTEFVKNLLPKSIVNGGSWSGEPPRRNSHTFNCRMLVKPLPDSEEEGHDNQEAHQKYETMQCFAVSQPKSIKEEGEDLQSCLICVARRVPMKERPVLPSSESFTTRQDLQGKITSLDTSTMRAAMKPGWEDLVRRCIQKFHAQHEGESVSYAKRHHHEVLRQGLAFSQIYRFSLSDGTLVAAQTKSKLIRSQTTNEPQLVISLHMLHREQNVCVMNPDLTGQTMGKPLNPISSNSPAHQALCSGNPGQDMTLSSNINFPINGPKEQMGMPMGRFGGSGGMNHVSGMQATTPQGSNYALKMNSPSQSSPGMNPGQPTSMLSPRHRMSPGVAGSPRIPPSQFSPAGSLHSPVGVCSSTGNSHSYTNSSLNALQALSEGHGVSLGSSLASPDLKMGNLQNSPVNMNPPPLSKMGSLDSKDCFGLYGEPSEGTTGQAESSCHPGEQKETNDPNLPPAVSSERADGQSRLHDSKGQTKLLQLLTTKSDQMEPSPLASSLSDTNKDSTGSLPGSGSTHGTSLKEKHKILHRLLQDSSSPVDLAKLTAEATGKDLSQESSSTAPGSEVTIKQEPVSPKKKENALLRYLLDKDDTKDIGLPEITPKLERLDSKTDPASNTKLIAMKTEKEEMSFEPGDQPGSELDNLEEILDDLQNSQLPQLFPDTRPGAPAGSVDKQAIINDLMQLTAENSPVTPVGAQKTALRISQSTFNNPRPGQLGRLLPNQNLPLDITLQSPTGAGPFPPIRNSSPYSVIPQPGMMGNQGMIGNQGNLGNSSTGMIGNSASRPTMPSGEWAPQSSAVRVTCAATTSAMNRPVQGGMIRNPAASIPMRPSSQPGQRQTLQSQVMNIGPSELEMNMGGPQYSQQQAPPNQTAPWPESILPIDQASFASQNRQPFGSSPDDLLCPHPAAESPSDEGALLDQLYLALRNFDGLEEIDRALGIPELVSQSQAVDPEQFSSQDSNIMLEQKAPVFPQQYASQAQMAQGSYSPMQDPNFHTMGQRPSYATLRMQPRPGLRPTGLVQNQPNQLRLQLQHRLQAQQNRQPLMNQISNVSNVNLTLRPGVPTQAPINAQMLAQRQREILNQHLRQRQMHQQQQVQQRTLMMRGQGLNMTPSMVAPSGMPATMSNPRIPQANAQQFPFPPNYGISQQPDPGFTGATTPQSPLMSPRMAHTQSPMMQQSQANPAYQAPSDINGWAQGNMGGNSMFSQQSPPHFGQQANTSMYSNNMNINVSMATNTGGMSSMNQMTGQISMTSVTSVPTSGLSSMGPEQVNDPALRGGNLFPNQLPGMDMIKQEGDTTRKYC

| Substance | binding |
| --- | --- |
| p300 histone acetylase (from UniProt Q09472 1-2414) | binds |
| Nuclear receptor coactivator 2 (from UniProt Q15596 1-1464) | binds |

— paper PMC8639922, “KSHV transactivator-derived small peptide traps coactivators to attenuate MYC and inhibits leukemia and lymphoma cell growth” (Communications Biology, 2021)
